# According to patent US3933918A, “2-Allyloxy-4-chloro-acetophenone” (Kyowa Hakko Kogyo Co., Ltd., priority 1973, dated 1976):
# At least one compound was matched to its structure with a doubt left.
# Tested on: coughs induced by mechanical stimulation on the mucosa of the tracheal bifurcation
# Experiment: Comparison of equi-active antitussive doses for various routes of administration in anesthetized dogs
# Type: in vivo, dog
# Details: dose through the femoral vein taken as 1.0
# Description: a. Comparison of equi-active doses for various routes of administration
# Five dogs weighing 8-10 kg are used. Polyethylene tubes are previously installed in the animals in the femoral vein, the vertebral artery and the cerebello-medullary cistern. The animals are lightly anesthetized by intraperitoneal injection of 20 mg/kg of pentobarbital sodium. The hydrochloride of 2-allyloxy-4-chloro-β-piperidinopropiophenone is given through the polyethylene tubes. Coughs are induced by mechanical stimulation on the mucosa of the tracheal bifurcation. The doses necessary to obtain the same degree of antitussive effect as that obtained by the administration through the femoral vein are determined.
smiles,measurement,setting,value
"COc1ccc2c3c1O[C@H]1[C@@H](O)C=C[C@H]4[C@@H](C2)N(C)CC[C@@]341 [Codeine phosphate, reference compound]",Ratio of equi-active doses,cerebello-medullary cistern,1/50-1/80
same,Ratio of equi-active doses,vertebral artery,1/8-1/12
